# Laboratory results from the supplement of paper PMC10032668.
# Chains of the proteins cited; added tags and fusions are not shown.
# TPX2, Q9ULW0, UniProt Q9ULW0, whole entry: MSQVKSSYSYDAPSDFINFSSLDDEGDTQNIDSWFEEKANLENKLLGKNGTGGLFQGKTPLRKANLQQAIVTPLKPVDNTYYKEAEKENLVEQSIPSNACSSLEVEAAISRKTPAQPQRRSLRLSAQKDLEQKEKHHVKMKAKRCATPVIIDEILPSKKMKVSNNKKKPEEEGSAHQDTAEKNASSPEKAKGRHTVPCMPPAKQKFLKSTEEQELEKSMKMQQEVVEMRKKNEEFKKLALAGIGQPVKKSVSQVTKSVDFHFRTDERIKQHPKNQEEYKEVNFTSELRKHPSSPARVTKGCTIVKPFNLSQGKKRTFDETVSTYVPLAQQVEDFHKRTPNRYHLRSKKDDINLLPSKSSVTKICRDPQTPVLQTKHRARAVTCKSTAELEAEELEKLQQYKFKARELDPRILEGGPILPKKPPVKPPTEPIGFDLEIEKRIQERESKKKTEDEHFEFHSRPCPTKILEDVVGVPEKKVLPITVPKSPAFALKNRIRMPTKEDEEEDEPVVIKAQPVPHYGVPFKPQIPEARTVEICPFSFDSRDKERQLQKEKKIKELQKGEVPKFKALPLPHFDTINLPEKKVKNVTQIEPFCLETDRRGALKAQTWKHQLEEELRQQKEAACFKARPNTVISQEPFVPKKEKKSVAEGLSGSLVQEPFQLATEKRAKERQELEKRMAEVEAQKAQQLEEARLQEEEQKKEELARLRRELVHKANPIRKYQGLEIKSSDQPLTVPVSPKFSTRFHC
# UFM1, P61960, UniProt P61960, whole entry: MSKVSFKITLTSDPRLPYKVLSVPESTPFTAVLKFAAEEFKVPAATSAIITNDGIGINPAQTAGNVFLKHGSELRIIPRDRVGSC
# The list shows a part of the results. The list holds hits alone, and they repeat only in part.
# Legend:
# Experiment in all cases: PRISMA enrichment of interactor (LFQ) in peptide spot vs all other peptide spots (log2 fold change); higher = stronger / more specific binding of the interactor to the peptide
# [1] = molecular target: PPIL2, Q13356
# Experimental: (§1)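 PRISMA: 221 full-length sORF-encoded peptides (3-15 aa), plus SOS1/GLUT1 control peptides, were spot-synthesized on cellulose membranes in triplicate. Membranes were incubated with HEK293T lysate, and bound proteins were identified by LC-MS/MS with LFQ. Enrichment is the log2 fold change versus all other peptide spots; only significant interactors are listed (cutoff c=6, x0=2.8).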
# [2] = molecular target: PPP1R10, Q96QC0
# Experimental: as §1
# [3] = molecular target: PRRC2A, P48634
# Experimental: as §1
# [4] = molecular target: PSPC1, Q8WXF1
# Experimental: as §1
# [5] = molecular target: PSRC1, Q6PGN9
# Experimental: as §1
# [6] = molecular target: PTBP1, P26599
# Experimental: as §1
# [7] = molecular target: RAE1, P78406
# Experimental: as §1
# [8] = molecular target: RBM14, Q96PK6
# Experimental: as §1
# [9] = molecular target: RBM27, Q9P2N5
# Experimental: as §1
# [10] = molecular target: RBM33, Q96EV2
# Experimental: as §1
# [11] = molecular target: RPUSD3, Q6P087
# Experimental: as §1
# [12] = molecular target: RRP36, Q96EU6
# Experimental: as §1
# [13] = molecular target: RTRAF, Q9Y224
# Experimental: as §1
# [14] = molecular target: SAFB, Q15424
# Experimental: as §1
# [15] = molecular target: SBDS, Q9Y3A5
# Experimental: as §1
# [16] = molecular target: SEH1L, Q96EE3
# Experimental: as §1
# [17] = molecular target: SERF2, P84101
# Experimental: as §1
# [18] = molecular target: SF1, Q15637
# Experimental: as §1
# [19] = molecular target: SFPQ, P23246
# Experimental: as §1
# [20] = molecular target: SLC9A3R2, Q15599
# Experimental: as §1
# [21] = molecular target: SMNDC1, O75940
# Experimental: as §1
# [22] = molecular target: SNW1, Q13573
# Experimental: as §1
# [23] = molecular target: SRI, P30626
# Experimental: as §1
# [24] = molecular target: SSBP1, Q04837
# Experimental: as §1
# [25] = molecular target: STRBP, Q96SI9
# Experimental: as §1
# [26] = molecular target: TACO1, Q9BSH4
# Experimental: as §1
# [27] = molecular target: TAOK2, Q9UL54
# Experimental: as §1
# [28] = molecular target: TIA1, P31483
# Experimental: as §1
# [29] = molecular target: TIAL1, Q01085
# Experimental: as §1
# [30] = molecular target: TIPRL, O75663
# Experimental: as §1
# [31] = molecular target: TOMM34, Q15785
# Experimental: as §1
# [32] = molecular target: TPX2, Q9ULW0
# Experimental: as §1
# [33] = molecular target: TRPT1, Q86TN4
# Experimental: as §1
# [34] = molecular target: TSFM, P43897
# Experimental: as §1
# [35] = molecular target: UFM1, P61960
# Experimental: as §1
# [36] = molecular target: VRK1, Q99986
# Experimental: as §1
# [37] = molecular target: WDR11, Q9BZH6
# Experimental: as §1
# [38] = molecular target: YRDC, Q86U90
# Experimental: as §1
# [39] = molecular target: YTHDF3, Q7Z739
# Experimental: as §1
# [40] = molecular target: ZNF512, Q96ME7
# Experimental: as §1
# [41] = molecular target: ZNF638, Q14966
# Experimental: as §1
# [42] = molecular target: ZNF768, Q9H5H4
# Experimental: as §1
binder,measurement,setting,value
MMFWTEF [SH3D19],PRISMA enrichment of interactor (log2),[1],7.04
same,PRISMA enrichment of interactor (log2),[2],5.71
same,PRISMA enrichment of interactor (log2),[3],4.12
same,PRISMA enrichment of interactor (log2),[4],7.36
same,PRISMA enrichment of interactor (log2),[5],4.67
same,PRISMA enrichment of interactor (log2),[6],4.33
same,PRISMA enrichment of interactor (log2),[7],5.67
same,PRISMA enrichment of interactor (log2),[8],6.01
same,PRISMA enrichment of interactor (log2),[9],5.12
same,PRISMA enrichment of interactor (log2),[10],6.16
same,PRISMA enrichment of interactor (log2),[11],4.94
same,PRISMA enrichment of interactor (log2),[12],4.52
same,PRISMA enrichment of interactor (log2),[13],5.04
same,PRISMA enrichment of interactor (log2),[14],5.95
same,PRISMA enrichment of interactor (log2),[15],5.17
same,PRISMA enrichment of interactor (log2),[16],5.42
same,PRISMA enrichment of interactor (log2),[17],5.02
same,PRISMA enrichment of interactor (log2),[18],6.02
same,PRISMA enrichment of interactor (log2),[19],5.24
same,PRISMA enrichment of interactor (log2),[20],6.49
same,PRISMA enrichment of interactor (log2),[21],6.22
same,PRISMA enrichment of interactor (log2),[22],5.16
same,PRISMA enrichment of interactor (log2),[23],4.69
same,PRISMA enrichment of interactor (log2),[24],5.07
same,PRISMA enrichment of interactor (log2),[25],6.11
same,PRISMA enrichment of interactor (log2),[26],5.26
same,PRISMA enrichment of interactor (log2),[27],4.15
same,PRISMA enrichment of interactor (log2),[28],6.22
same,PRISMA enrichment of interactor (log2),[29],5.33
same,PRISMA enrichment of interactor (log2),[30],5.08
same,PRISMA enrichment of interactor (log2),[31],6.77
same,PRISMA enrichment of interactor (log2),[32],6.17
same,PRISMA enrichment of interactor (log2),[33],3.89
same,PRISMA enrichment of interactor (log2),[34],4.95
same,PRISMA enrichment of interactor (log2),[35],4.69
same,PRISMA enrichment of interactor (log2),[36],5.12
same,PRISMA enrichment of interactor (log2),[37],6.29
same,PRISMA enrichment of interactor (log2),[38],5.03
same,PRISMA enrichment of interactor (log2),[39],4.75
same,PRISMA enrichment of interactor (log2),[40],4.65
same,PRISMA enrichment of interactor (log2),[41],7.11
same,PRISMA enrichment of interactor (log2),[42],6.27

# Quoted at random: two entries already listed
binder,measurement,setting,value
MMFWTEF [SH3D19],PRISMA enrichment of interactor (log2),[12],4.52
same,PRISMA enrichment of interactor (log2),[30],5.08
